Experimental findings from PMC8027845 are described below.

These are yes or no findings as the source states them, for the method shown. In cells and extracts the contact can be indirect. Some results given as binding are weak or reduced against the parent protein; the word gives no strength.

The target in the experiment is T1, T-LAK-originated protein kinase (TOPK) (human (endogenous in H460)) (UniProt Q96KB5).
T1 sequence: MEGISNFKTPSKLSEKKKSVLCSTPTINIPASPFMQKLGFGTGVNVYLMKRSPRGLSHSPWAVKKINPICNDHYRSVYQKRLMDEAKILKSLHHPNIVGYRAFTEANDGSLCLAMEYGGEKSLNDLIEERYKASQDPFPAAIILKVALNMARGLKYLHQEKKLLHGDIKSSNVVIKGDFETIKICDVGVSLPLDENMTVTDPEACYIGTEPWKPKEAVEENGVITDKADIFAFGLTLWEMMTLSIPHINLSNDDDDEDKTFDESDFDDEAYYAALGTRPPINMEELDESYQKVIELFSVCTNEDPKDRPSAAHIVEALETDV
Briefly: co-IP; TOPK precipitated from precleared H460 whole-cell lysates (RIPA buffer, protease and phosphatase inhibitors) with Protein A/G beads preloaded with 2 ug antibody, 5-6 h at 4 °C; western blot for Cdc25C and CHK1; cells untreated or treated with OTS964 and/or 4 Gy irradiation, overnight hydroxyurea (1 mM) or nocodazole (100 ng/ml); mouse IgG as negative control.

B1: Cdc25C (protein, UniProt P30307 1-473)
chain: MSTELFSSTREEGSSGSGPSFRSNQRKMLNLLLERDTSFTVCPDVPRTPVGKFLGDSANLSILSGGTPKRCLDLSNLSSGEITATQLTTSADLDETGHLDSSGLQEVHLAGMNHDQHLMKCSPAQLLCSTPNGLDRGHRKRDAMCSSSANKENDNGNLVDSEMKYLGSPITTVPKLDKNPNLGEDQAEEISDELMEFSLKDQEAKVSRSGLYRSPSMPENLNRPRLKQVEKFKDNTIPDKVKKKYFSGQGKLRKGLCLKKTVSLCDITITQMLEEDSNQGHLIGDFSKVCALPTVSGKHQDLKYVNPETVAALLSGKFQGLIEKFYVIDCRYPYEYLGGHIQGALNLYSQEELFNFFLKKPIVPLDTQKRIIIVFHCEFSSERGPRMCRCLREEDRSLNQYPALYYPELYILKGGYRDFFPEYMELCEPQSYCPMHHQDHKTELLRCRSQSKVQEGERQLREQIALLVKDMSP
B1: the binding result is “binds”.
